Measurements reported in PubChem BioAssay (EPA / NIEHS).
Where “and” joins values, the source holds several entries; their conditions need not be identical. Equal values may be shown once. The inconclusive results got no clear call from the source; some entries with a clear call stand among them for comparison. For some of these results: A potency beside an inconclusive call is a rough fit, not a confirmed value. Calls of active or inactive are those of the source. How the source made its calls: active means hit-call score of the fitted dose curve at least 0.9, where 1 is the maximum; inconclusive means response in the unintended direction; inactive means score below 0.9.

Protein sequences, listed by entry. Tags and fused reporters are not part of them. Lines headed by an entry give the natural chain unless they say otherwise; changes in a name come on top.
UniProt P33261, whole entry, looked up: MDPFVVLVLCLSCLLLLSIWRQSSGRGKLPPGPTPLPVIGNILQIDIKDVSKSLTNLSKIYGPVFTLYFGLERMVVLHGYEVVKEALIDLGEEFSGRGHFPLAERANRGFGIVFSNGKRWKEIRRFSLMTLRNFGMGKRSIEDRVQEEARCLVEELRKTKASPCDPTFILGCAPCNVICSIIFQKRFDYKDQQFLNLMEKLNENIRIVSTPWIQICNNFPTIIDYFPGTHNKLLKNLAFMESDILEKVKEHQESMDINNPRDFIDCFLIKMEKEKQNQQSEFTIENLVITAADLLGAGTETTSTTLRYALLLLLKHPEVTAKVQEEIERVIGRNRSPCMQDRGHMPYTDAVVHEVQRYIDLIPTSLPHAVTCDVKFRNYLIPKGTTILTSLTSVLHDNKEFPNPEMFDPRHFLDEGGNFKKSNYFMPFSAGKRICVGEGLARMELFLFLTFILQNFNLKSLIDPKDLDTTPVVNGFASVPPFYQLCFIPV
UniProt P04406: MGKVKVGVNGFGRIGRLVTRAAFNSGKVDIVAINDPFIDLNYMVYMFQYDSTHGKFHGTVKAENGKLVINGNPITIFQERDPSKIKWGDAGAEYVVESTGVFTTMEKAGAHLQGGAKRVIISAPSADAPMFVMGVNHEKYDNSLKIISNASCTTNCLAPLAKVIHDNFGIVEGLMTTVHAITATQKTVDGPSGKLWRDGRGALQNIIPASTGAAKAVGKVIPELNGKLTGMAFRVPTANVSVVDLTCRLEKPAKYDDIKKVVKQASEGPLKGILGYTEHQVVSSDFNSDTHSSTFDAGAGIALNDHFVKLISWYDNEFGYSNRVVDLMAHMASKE
UniProt P08684, whole entry, looked up: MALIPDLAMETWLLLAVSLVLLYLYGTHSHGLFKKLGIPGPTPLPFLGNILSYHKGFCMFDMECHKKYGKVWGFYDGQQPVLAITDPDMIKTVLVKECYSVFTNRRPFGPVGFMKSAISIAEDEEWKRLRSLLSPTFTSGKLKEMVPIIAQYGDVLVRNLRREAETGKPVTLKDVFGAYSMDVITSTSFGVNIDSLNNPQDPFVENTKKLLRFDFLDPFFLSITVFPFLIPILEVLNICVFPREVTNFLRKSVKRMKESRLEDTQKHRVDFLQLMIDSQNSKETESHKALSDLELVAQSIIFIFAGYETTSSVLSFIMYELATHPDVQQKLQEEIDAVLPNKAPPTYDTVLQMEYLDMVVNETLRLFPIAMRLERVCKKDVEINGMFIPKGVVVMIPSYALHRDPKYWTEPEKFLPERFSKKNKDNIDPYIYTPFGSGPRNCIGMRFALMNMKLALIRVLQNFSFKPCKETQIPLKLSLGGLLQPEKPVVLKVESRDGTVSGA
UniProt Q9UNQ0: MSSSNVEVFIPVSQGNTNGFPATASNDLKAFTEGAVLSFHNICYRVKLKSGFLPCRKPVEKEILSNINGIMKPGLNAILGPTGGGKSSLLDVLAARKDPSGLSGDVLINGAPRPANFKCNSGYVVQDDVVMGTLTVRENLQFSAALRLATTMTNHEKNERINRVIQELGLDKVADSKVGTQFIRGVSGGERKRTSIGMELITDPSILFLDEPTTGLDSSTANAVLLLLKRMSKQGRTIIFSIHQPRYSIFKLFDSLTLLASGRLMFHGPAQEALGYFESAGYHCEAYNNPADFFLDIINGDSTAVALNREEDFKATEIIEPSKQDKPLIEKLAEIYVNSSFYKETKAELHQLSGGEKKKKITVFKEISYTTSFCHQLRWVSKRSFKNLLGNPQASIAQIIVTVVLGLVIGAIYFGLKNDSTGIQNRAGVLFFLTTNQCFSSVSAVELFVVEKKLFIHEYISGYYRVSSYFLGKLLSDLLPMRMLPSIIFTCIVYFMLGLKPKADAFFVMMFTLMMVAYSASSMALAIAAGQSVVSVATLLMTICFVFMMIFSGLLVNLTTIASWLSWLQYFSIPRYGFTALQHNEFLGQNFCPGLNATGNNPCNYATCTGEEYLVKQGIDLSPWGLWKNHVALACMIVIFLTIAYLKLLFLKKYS

Experiments:
[1] = Tanguay_ZF_120hpf_YSE_legacy: (Legacy) Oregon State University Tanguay Lab 120 Hour Post-fertilization zebrafish Assay for Yolk Sac Edema (AID 2283634);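 further: actives raise the incidence of yolk sac edema above the DMSO baseline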
In short: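 Dechorionate (pronase, 4 hpf) → place one 6 hpf embryo per well → static compound exposure, sealed and foil-covered, 28C, to 120 hpf → record yolk sac edema as present or absent. Final DMSO 0.64%.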

[2] = Tanguay_ZF_120hpf_SOMI_legacy: (Legacy) Oregon State University Tanguay Lab 120 Hour Post-fertilization zebrafish Assay for Somite Malformation (AID 2283647)
In short: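 Read-out: presence or absence of somite malformation in 120 hpf larvae, gain-of-signal relative to DMSO baseline. Embryos lacked chorion (pronase, 4 hpf) and were exposed statically from 6 hpf at 28C; dead larvae not scored.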

[3] = Tanguay_ZF_120hpf_NC_legacy: (Legacy) Oregon State University Tanguay Lab 120 Hour Post-fertilization zebrafish Assay for Notochord and Tail Malformation (AID 2283656)
In short: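 Dechorionated 5D zebrafish, 1/well from 6 hpf; static exposure to 120 hpf, 28C, sealed, dark; final DMSO 0.64% v/v. NC scored binary (present/absent); dead embryos not scored. Fit vs DMSO baseline, gain direction.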

[4] = read-out: alkyl and aryl transferase (GSTA2), GSTA2 (gene 2939); test: CLD_GSTA2_6hr: CellzDirect (CLD) Gene Expression Assay for alkyl and aryl transferase (GSTA2) at 6 hours (AID 2283666)
In short: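 Primary human hepatocytes from two donor preparations were dosed daily with fresh compound at multiple concentrations, 0.2% DMSO vehicle. GSTA2 mRNA was measured at 6 hours by qNPA chemiluminescence; induction fitted relative to DMSO, with cytotoxicity flagged morphologically.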

[5] = read-out: organic anion transporter (SLCO1B1), SLCO1B1 (gene 10599); test: CLD_SLCO1B1_6hr: CellzDirect (CLD) Gene Expression Assay for organic anion transporter (SLCO1B1) at 6 hours (AID 2283668);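 further: active means mRNA induction above DMSO baseline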
In short: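 Primary human hepatocytes dosed daily with test chemicals (multiple concentrations) in 0.2% DMSO vehicle; harvested at 6 h. SLCO1B1 mRNA quantified by qNPA chemiluminescence, fitted as gain-of-signal versus DMSO; cytotoxicity from phase-contrast morphology flagged alongside.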

[6] = CLD_ACTIN_24hr: CellzDirect (CLD) Gene Expression Assay for Baseline Control (Actin) at 24 hours (AID 2283670)
In short: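 Primary human hepatocytes dosed over multiple concentrations with 0.2% DMSO vehicle; actin mRNA measured at 24 h by qNPA chemiluminescence. Background control endpoint, fitted as gain of signal versus DMSO.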

[7] = CLD_ACTIN_6hr: CellzDirect (CLD) Gene Expression Assay for Baseline Control (Actin) at 6 hours (AID 2283676);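 further: active means increased actin mRNA relative to DMSO vehicle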
In short: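 Primary human hepatocytes dosed with fresh chemical solutions (vehicle 0.2% DMSO), harvested at 6 h. Actin mRNA quantified by quantitative nuclease protection assay with chemiluminescent read-out, as background control relative to DMSO.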

[8] = read-out: Cytochrome P450 2C19 (Homo sapiens) (UniProt P33261); test: CLD_CYP2C19_6hr: CellzDirect (CLD) Gene Expression Assay for xenobiotic metabolism (CYP2C19) at 6 hours (AID 2283678)
In short: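 Primary human hepatocytes from two donor preparations were dosed daily, with 0.2% DMSO as vehicle, and harvested 6 h after dosing. CYP2C19 mRNA induction was measured by qNPA chemiluminescence and fitted as gain of signal against DMSO.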

[9] = read-out: HMG-CoA synthase (HMGCS2), HMGCS2 (gene 3158); test: CLD_HMGCS2_6hr: CellzDirect (CLD) Gene Expression Assay for HMG-CoA synthase (HMGCS2) at 6 hours (AID 2283682);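 further: actives raise HMGCS2 transcript above the 0.2% DMSO vehicle baseline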
In short: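 Primary human hepatocytes dosed daily with fresh chemical, 0.2% DMSO vehicle; HMGCS2 mRNA measured at 6 h by qNPA chemiluminescence. Gain of signal fitted against DMSO; cytotoxicity flagged from phase-contrast morphology.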

[10] = read-out: organic anion transporter (SLCO1B1), SLCO1B1 (gene 10599); test: CLD_SLCO1B1_24hr: CellzDirect (CLD) Gene Expression Assay for organic anion transporter (SLCO1B1) at 24 hours (AID 2283690)
In short: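 Primary human hepatocytes (two donor preparations) dosed daily for two days with chemicals at multiple concentrations, 0.2% DMSO vehicle. SLCO1B1 mRNA at 24 h measured by qNPA chemiluminescence; induction fitted relative to DMSO.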

[11] = read-out: HMG-CoA synthase (HMGCS2), HMGCS2 (gene 3158); test: CLD_HMGCS2_24hr: CellzDirect (CLD) Gene Expression Assay for HMG-CoA synthase (HMGCS2) at 24 hours (AID 2283691)
In short: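 Primary human hepatocytes from two donor preparations, dosed daily with fresh solutions; vehicle 0.2% DMSO, 24 h harvest. HMGCS2 mRNA quantified by qNPA with S1 nuclease digestion and chemiluminescence; gain fitted versus DMSO, cytotoxicity annotated by morphology.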

[12] = read-out: Glyceraldehyde-3-phosphate dehydrogenase (Homo sapiens) (UniProt P04406); test: CLD_GAPDH_24hr: CellzDirect (CLD) Gene Expression Assay for Baseline Control (Glyceraldehyde 3-phosphate dehydrogenase) at 24 hours (AID 2283692)
In short: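 Primary human hepatocytes (two donor preparations) dosed daily for two days, 0.2% DMSO vehicle; GAPDH mRNA measured at 24 h by qNPA chemiluminescence as a background control, gain-of-signal fitted against DMSO.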

[13] = read-out: ABC Transporter (ABCB11), ABCB11 (gene 8647); test: CLD_ABCB11_48hr: CellzDirect (CLD) Gene Expression Assay for ABC Transporter (ABCB11) at 48 hours (AID 2283697)
In short: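 Primary human hepatocytes from two donor preparations dosed daily for two days at multiple concentrations; 0.2% DMSO vehicle. ABCB11 mRNA at 48 h by quantitative nuclease protection assay, chemiluminescence; fitted for induction versus DMSO.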

[14] = read-out: Cytochrome P450 3A4 (Homo sapiens) (UniProt P08684); test: CLD_CYP3A4_48hr: CellzDirect (CLD) Gene Expression Assay for xenobiotic metabolism (CYP3A4) at 48 hours (AID 2283698)
In short: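 Primary human hepatocytes from two donor preparations dosed daily for two days with multiple chemical concentrations, 0.2% DMSO vehicle. CYP3A4 mRNA at 48 h by quantitative nuclease protection assay, chemiluminescence, positive fit versus DMSO; cytotoxicity flagged morphologically.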

[15] = read-out: Cytochrome P450 2C19 (Homo sapiens) (UniProt P33261); test: CLD_CYP2C19_48hr: CellzDirect (CLD) Gene Expression Assay for xenobiotic metabolism (CYP2C19) at 48 hours (AID 2283700)
In short: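 Primary human hepatocytes (two donor preparations) dosed daily for two days, harvested at 48 h; CYP2C19 mRNA induction measured by qNPA chemiluminescence. Gain-of-signal fitted relative to 0.2% DMSO vehicle as baseline.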

[16] = read-out: Broad substrate specificity ATP-binding cassette transporter ABCG2 (Homo sapiens) (UniProt Q9UNQ0); test: CLD_ABCG2_48hr: CellzDirect (CLD) Gene Expression Assay for ABC Transporter (ABCG2) at 48 hours (AID 2283704);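 further: potency for induction of ABCG2 mRNA above the DMSO baseline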
In short: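 Primary human hepatocytes from two donors, dosed daily for 2 days, 0.2% DMSO vehicle, several concentrations. ABCG2 mRNA at 48 h by qNPA chemiluminescence, gain fitted versus DMSO; cytotoxicity flagged by morphology.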

[17] = read-out: Glyceraldehyde-3-phosphate dehydrogenase (Homo sapiens) (UniProt P04406); test: CLD_GAPDH_48hr: CellzDirect (CLD) Gene Expression Assay for Baseline Control (Glyceraldehyde 3-phosphate dehydrogenase) at 48 hours (AID 2283706)
In short: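 Primary human hepatocytes dosed daily for two days with fresh chemical at multiple concentrations, 0.2% DMSO vehicle; GAPDH mRNA measured at 48 h by quantitative nuclease protection assay with chemiluminescence, fitted upward relative to DMSO as background control.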

[18] = read-out: organic anion transporter (SLCO1B1), SLCO1B1 (gene 10599); test: CLD_SLCO1B1_48hr: CellzDirect (CLD) Gene Expression Assay for organic anion transporter (SLCO1B1) at 48 hours (AID 2283707)
In short: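 Primary human hepatocytes from two donor preparations dosed daily for two days with multiple concentrations, 0.2% DMSO vehicle. SLCO1B1 mRNA at 48 h by quantitative nuclease protection assay, chemiluminescence; gain-of-signal fitted versus DMSO.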

[19] = read-out: alkyl and aryl transferase (GSTA2), GSTA2 (gene 2939); test: CLD_GSTA2_48hr: CellzDirect (CLD) Gene Expression Assay for alkyl and aryl transferase (GSTA2) at 48 hours (AID 2283708);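 further: active means mRNA induction above DMSO vehicle baseline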
In short: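 Primary human hepatocytes dosed daily for two days (0.2% DMSO vehicle), harvested at 48 h. GSTA2 mRNA induction measured by quantitative nuclease protection assay with chemiluminescent imaging, fitted for gain of signal relative to DMSO.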

[20] = read-out: sulfotransferase (SULT2A), SULT2A1 (gene 6822); test: CLD_SULT2A_48hr: CellzDirect (CLD) Gene Expression Assay for sulfotransferase (SULT2A) at 48 hours (AID 2283710);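 further: hits raise SULT2A1 transcript above the 0.2% DMSO vehicle baseline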
In short: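 Primary human hepatocytes (two donor preparations) dosed daily for two days with chemicals at multiple concentrations, vehicle 0.2% DMSO; SULT2A1 mRNA induction at 48 h by quantitative nuclease protection assay, chemiluminescent read-out, fitted for gain of signal versus DMSO.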

[21] = read-out: HMG-CoA synthase (HMGCS2), HMGCS2 (gene 3158); test: CLD_HMGCS2_48hr: CellzDirect (CLD) Gene Expression Assay for HMG-CoA synthase (HMGCS2) at 48 hours (AID 2283711)
In short: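 Primary human hepatocytes from two donors dosed daily for two days, 0.2% DMSO vehicle. HMGCS2 mRNA measured 48 h after dosing by quantitative nuclease protection assay with chemiluminescent read-out; induction fitted relative to DMSO, cytotoxicity flagged by microscopy.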

[22] = CCTE_Harrill_HTTr_CellCount_MCF7: CCTE's Cell Proliferation Assessment for the High-Throughput Transcriptomics (HTTr) Platform, Harrill Lab (AID 2284012);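 further: cells exposed to compound for six hours; intended direction is loss of nuclei count meaning fewer cells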
In short: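 MCF-7 cells were exposed for 6 h to an eight-point dilution series; Hoechst-labeled nuclei were counted by high content imaging. Curves were fitted bidirectionally against DMSO as negative control and baseline, with signal loss indicating reduced cell count.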

[23] = CCTE_Shafer_MEA_dev_active_electrodes_number: CCTE's Neural Network Formation Assay for Number of Active Electrodes, Shafer Lab (AID 2284040);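 further: potency for loss of active electrodes versus DMSO so lower counts are hits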
In short: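 Rat cortical primary cultures, 1.5 x 10^5 cells/well, PEI-coated MEA, laminin drop. Continuous exposure DIV 0–12; full media/compound change DIV 5, 9. Readout: electrodes with mean firing ≥5 spikes/min; AUC across days; loss vs DMSO.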

[24] = CCTE_Mundy_HCI_hNP1_Pro_ResponderAvgInten: CCTE's Proliferation Assay in human neuroprogenitor cells, Mundy Lab (AID 2284224);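 further: human neural progenitor cells hNP1 derived from WA09 embryonic stem cells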
In short: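 Human neuroprogenitors (hNP1, WA09 lineage) receive test chemical after 40 to 44 hours of attachment. A four-hour BrdU pulse begins twenty hours later, followed by fixation and high content imaging; signal is referenced to DMSO controls.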

[25] = CCTE_Mundy_HCI_hNP1_CellTiter: CCTE's Cell Titer-Glo 2 Assay in human neuroprogenitor cells for Viability, Mundy Lab (AID 2284241);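 further: a hit is a drop in ATP luminescence versus DMSO meaning reduced viability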
In short: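 Measures ATP content in human neural progenitors derived from WA09 embryonic cells. Read-out at 26.5 hours after dosing, with DMSO serving as the negative control and baseline.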

Measured: AC50

CCCCSP(=O)(SCCCC)SCCCC
inconclusive: [3] 72.3 µM | [4] 20 µM | [5] 20 µM | [6] 0.31 µM | [8] 20 µM | [9] 0.0004 µM | [11] 0.0004 µM | [12] 1.9 µM | [15] 20 µM | [17] 20 µM | [19] 20 µM | [22] 50 µM | [25] 22 µM
active: [1] 7.24 µM | [14] 20 µM | [16] 33.5 µM | [20] 33.4 µM | [23] 34.3 µM and 15.2 µM | [24] 50 µM and 74.1 µM
inactive: [2] | [7] | [10] | [13] | [18] | [21]
